{"source": "the supplement of paper PMC8728848", "binders": {"B1": {"name": "4F2hc (Homo sapiens), P08195 (protein)", "chain": "WWHTGALYRIGDLQAFQGHGAGNLAGLKGRLDYLSSLKVKGLVLGPIHKNQKDDVAQTDLLQIDPNFGSKEDFDSLLQSAKKKSIRVILDLTPNYRGENSWFSTQVDTVATKVKDALEFWLQAGVDGFQVRDIENLKDASSFLAEWQNITKGFSEDRLLIAGTNSSDLQQILSLLESNKDLLLTSSYLSDSGSTGEHTKSLVTQYLNATGNRWCSWSLSQARLLTSFLPAQLLRLYQLMLFTLPGTPVFSYGDEIGLDAAALPGQPMEAPVMLWDESSFPDIPGAVSANMTVKGQSEDPGSLLSLFRRLSDQRSKERSLLHGDFHAFSAGPGLFSYIRHWDQNERFLVVLNFGDVGLSAGLQASDLPASASLPAKADLLLSTQPGREEGSPLELERLKLEPHEGLLLRFPYAA"}}, "assay_in_all_cases": "glycan array binding signal (z-score within array); higher = stronger binding", "conditions_in_all_cases": "glycan notation: IUPAC condensed, linker removed", "key": {"[1]": {"target": "Neu5Ac(a2-3)Gal(b1-4)GlcNAc(b1-3)Gal(b1-4)[Fuc(a1-3)]GlcNAc", "procedure,_shortened": "(§1)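 The Consortium for Functional Glycomics database supplied 3228 glycan arrays, of which those lacking an available protein sequence were dropped. The binding signal, a within-array Z-score, was averaged across arrays of the same protein sequence and across linkers. Negative scores can be read as non-binding.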"}, "[2]": {"target": "Neu5Ac(a2-3)Gal(b1-4)GlcNAc(b1-3)GalNAc", "procedure,_shortened": "as §1"}, "[3]": {"target": "Neu5Ac(a2-3)Gal(b1-4)GlcNAc(b1-6)[Gal(b1-3)]GalNAc", "procedure,_shortened": "as §1"}, "[4]": {"target": "Neu5Ac(a2-3)Gal(b1-4)GlcNAc(b1-6)[Neu5Ac(a2-3)Gal(b1-3)]GalNAc", "procedure,_shortened": "as §1"}, "[5]": {"target": "Neu5Ac(a2-3)Gal(b1-4)GlcNAc6S", "procedure,_shortened": "as §1"}, "[6]": {"target": "Neu5Ac(a2-3)Gal(b1-4)[Fuc(a1-3)]GlcNAc", "procedure,_shortened": "as §1"}, "[7]": {"target": "Neu5Ac(a2-3)Gal(b1-4)[Fuc(a1-3)]GlcNAc(b1-3)Gal", "procedure,_shortened": "as §1"}, "[8]": {"target": "Neu5Ac(a2-3)Gal(b1-4)[Fuc(a1-3)]GlcNAc(b1-3)Gal(b1-4)GlcNAc", "procedure,_shortened": "as §1"}, "[9]": {"target": "Neu5Ac(a2-3)Gal(b1-4)[Fuc(a1-3)]GlcNAc(b1-3)Gal(b1-4)[Fuc(a1-3)]GlcNAc(b1-3)Gal(b1-4)[Fuc(a1-3)]GlcNAc", "procedure,_shortened": "as §1"}, "[10]": {"target": "Neu5Ac(a2-3)Gal(b1-4)[Fuc(a1-3)]GlcNAc(b1-6)[Gal(b1-3)]GalNAc", "procedure,_shortened": "as §1"}, "[11]": {"target": "Neu5Ac(a2-3)Gal(b1-4)[Fuc(a1-3)]GlcNAc(b1-6)[Neu5Ac(a2-3)Gal(b1-3)]GalNAc", "procedure,_shortened": "as §1"}, "[12]": {"target": "Neu5Ac(a2-3)Gal(b1-4)[Fuc(a1-3)]GlcNAc6S", "procedure,_shortened": "as §1"}, "[13]": {"target": "Neu5Ac(a2-3)Gal6S(b1-4)GlcNAc", "procedure,_shortened": "as §1"}, "[14]": {"target": "Neu5Ac(a2-3)Gal6S(b1-4)[Fuc(a1-3)]GlcNAc", "procedure,_shortened": "as §1"}, "Neu5Ac(a2-3)GalNAc": {"target": "Neu5Ac(a2-3)GalNAc", "procedure,_shortened": "as §1"}, "[15]": {"target": "Neu5Ac(a2-3)GalNAc(b1-4)GlcNAc", "procedure,_shortened": "as §1"}, "[16]": {"target": "Neu5Ac(a2-3)[GalNAc(b1-4)]Gal(b1-4)Glc", "procedure,_shortened": "as §1"}, "[17]": {"target": "Neu5Ac(a2-3)[GalNAc(b1-4)]Gal(b1-4)GlcNAc", "procedure,_shortened": "as §1"}, "[18]": {"target": "Neu5Ac(a2-3)[Neu5Ac(a2-6)]GalNAc", "procedure,_shortened": "as §1"}, "Neu5Ac(a2-6)Gal": {"target": "Neu5Ac(a2-6)Gal", "procedure,_shortened": "as §1"}, "Neu5Ac(a2-6)Gal(b1-4)Glc": {"target": "Neu5Ac(a2-6)Gal(b1-4)Glc", "procedure,_shortened": "as §1"}, "[19]": {"target": "Neu5Ac(a2-6)Gal(b1-4)GlcNAc", "procedure,_shortened": "as §1"}, "[20]": {"target": "Neu5Ac(a2-6)Gal(b1-4)GlcNAc(b1-2)Man(a1-3)Man(b1-4)GlcNAc(b1-4)GlcNAc", "procedure,_shortened": "as §1"}, "[21]": {"target": "Neu5Ac(a2-6)Gal(b1-4)GlcNAc(b1-2)Man(a1-3)[Gal(b1-4)GlcNAc(b1-2)Man(a1-6)]Man(b1-4)GlcNAc(b1-4)GlcNAc", "procedure,_shortened": "as §1"}, "[22]": {"target": "Neu5Ac(a2-6)Gal(b1-4)GlcNAc(b1-2)Man(a1-3)[GlcNAc(b1-2)Man(a1-6)]Man(b1-4)GlcNAc(b1-4)GlcNAc", "procedure,_shortened": "as §1"}, "[23]": {"target": "Neu5Ac(a2-6)Gal(b1-4)GlcNAc(b1-2)Man(a1-3)[GlcNAc(b1-2)Man(b1-4)GlcNAc(b1-2)Man(a1-6)]Man(b1-4)GlcNAc(b1-4)GlcNAc", "procedure,_shortened": "as §1"}, "[24]": {"target": "Neu5Ac(a2-6)Gal(b1-4)GlcNAc(b1-2)Man(a1-3)[Man(a1-6)]Man(b1-4)GlcNAc(b1-4)GlcNAc", "procedure,_shortened": "as §1"}, "[25]": {"target": "Neu5Ac(a2-6)Gal(b1-4)GlcNAc(b1-2)Man(a1-3)[Neu5Ac(a2-6)Gal(b1-4)GlcNAc(b1-2)Man(a1-6)]Man(b1-4)GlcNAc(b1-4)GlcNAc", "procedure,_shortened": "as §1"}, "[26]": {"target": "Neu5Ac(a2-6)Gal(b1-4)GlcNAc(b1-2)Man(a1-6)Man(b1-4)GlcNAc(b1-4)GlcNAc", "procedure,_shortened": "as §1"}, "[27]": {"target": "Neu5Ac(a2-6)Gal(b1-4)GlcNAc(b1-2)Man(a1-6)[Gal(b1-4)GlcNAc(b1-2)Man(a1-3)]Man(b1-4)GlcNAc(b1-4)GlcNAc", "procedure,_shortened": "as §1"}, "[28]": {"target": "Neu5Ac(a2-6)Gal(b1-4)GlcNAc(b1-2)Man(a1-6)[GlcNAc(b1-2)Man(a1-3)]Man(b1-4)GlcNAc(b1-4)GlcNAc", "procedure,_shortened": "as §1"}, "[29]": {"target": "Neu5Ac(a2-6)Gal(b1-4)GlcNAc(b1-2)Man(a1-6)[Man(a1-3)]Man(b1-4)GlcNAc(b1-4)GlcNAc", "procedure,_shortened": "as §1"}, "[30]": {"target": "Neu5Ac(a2-6)Gal(b1-4)GlcNAc(b1-3)Gal(b1-3)GlcNAc", "procedure,_shortened": "as §1"}, "[31]": {"target": "Neu5Ac(a2-6)Gal(b1-4)GlcNAc(b1-3)Gal(b1-4)GlcNAc", "procedure,_shortened": "as §1"}, "[32]": {"target": "Neu5Ac(a2-6)Gal(b1-4)GlcNAc(b1-3)Gal(b1-4)GlcNAc(b1-3)Gal(b1-4)GlcNAc", "procedure,_shortened": "as §1"}, "[33]": {"target": "Neu5Ac(a2-6)Gal(b1-4)GlcNAc(b1-3)Gal(b1-4)[Fuc(a1-3)]GlcNAc(b1-3)Gal(b1-4)[Fuc(a1-3)]GlcNAc", "procedure,_shortened": "as §1"}, "[34]": {"target": "Neu5Ac(a2-6)Gal(b1-4)GlcNAc(b1-3)GalNAc", "procedure,_shortened": "as §1"}, "[35]": {"target": "Neu5Ac(a2-6)Gal(b1-4)GlcNAc6S", "procedure,_shortened": "as §1"}}, "note": "The list shows a part of the results."}
{"binder": "B1", "values": [{"measurement": "glycan array binding signal (z-score)", "setting": "[1]", "value": -0.265}, {"measurement": "glycan array binding signal (z-score)", "setting": "[2]", "value": -0.993}, {"measurement": "glycan array binding signal (z-score)", "setting": "[3]", "value": -1.08}, {"measurement": "glycan array binding signal (z-score)", "setting": "[4]", "value": -0.991}, {"measurement": "glycan array binding signal (z-score)", "setting": "[5]", "value": 2.27}, {"measurement": "glycan array binding signal (z-score)", "setting": "[6]", "value": -0.451}, {"measurement": "glycan array binding signal (z-score)", "setting": "[7]", "value": -0.785}, {"measurement": "glycan array binding signal (z-score)", "setting": "[8]", "value": 0.493}, {"measurement": "glycan array binding signal (z-score)", "setting": "[9]", "value": -0.062}, {"measurement": "glycan array binding signal (z-score)", "setting": "[10]", "value": -0.685}, {"measurement": "glycan array binding signal (z-score)", "setting": "[11]", "value": 3.35}, {"measurement": "glycan array binding signal (z-score)", "setting": "[12]", "value": 0.867}, {"measurement": "glycan array binding signal (z-score)", "setting": "[13]", "value": -0.272}, {"measurement": "glycan array binding signal (z-score)", "setting": "[14]", "value": 0.518}, {"measurement": "glycan array binding signal (z-score)", "setting": "Neu5Ac(a2-3)GalNAc", "value": -1.16}, {"measurement": "glycan array binding signal (z-score)", "setting": "[15]", "value": 0.413}, {"measurement": "glycan array binding signal (z-score)", "setting": "[16]", "value": -0.955}, {"measurement": "glycan array binding signal (z-score)", "setting": "[17]", "value": -0.5}, {"measurement": "glycan array binding signal (z-score)", "setting": "[18]", "value": -1.05}, {"measurement": "glycan array binding signal (z-score)", "setting": "Neu5Ac(a2-6)Gal", "value": -0.336}, {"measurement": "glycan array binding signal (z-score)", "setting": "Neu5Ac(a2-6)Gal(b1-4)Glc", "value": -0.089}, {"measurement": "glycan array binding signal (z-score)", "setting": "[19]", "value": -0.542}, {"measurement": "glycan array binding signal (z-score)", "setting": "[20]", "value": 0.328}, {"measurement": "glycan array binding signal (z-score)", "setting": "[21]", "value": -0.097}, {"measurement": "glycan array binding signal (z-score)", "setting": "[22]", "value": -0.141}, {"measurement": "glycan array binding signal (z-score)", "setting": "[23]", "value": -0.786}, {"measurement": "glycan array binding signal (z-score)", "setting": "[24]", "value": 0.082}, {"measurement": "glycan array binding signal (z-score)", "setting": "[25]", "value": -0.17}, {"measurement": "glycan array binding signal (z-score)", "setting": "[26]", "value": -0.35}, {"measurement": "glycan array binding signal (z-score)", "setting": "[27]", "value": -0.048}, {"measurement": "glycan array binding signal (z-score)", "setting": "[28]", "value": -1.01}, {"measurement": "glycan array binding signal (z-score)", "setting": "[29]", "value": 5.26}, {"measurement": "glycan array binding signal (z-score)", "setting": "[30]", "value": -1.04}, {"measurement": "glycan array binding signal (z-score)", "setting": "[31]", "value": -0.747}, {"measurement": "glycan array binding signal (z-score)", "setting": "[32]", "value": -1.15}, {"measurement": "glycan array binding signal (z-score)", "setting": "[33]", "value": -1.09}, {"measurement": "glycan array binding signal (z-score)", "setting": "[34]", "value": -0.83}, {"measurement": "glycan array binding signal (z-score)", "setting": "[35]", "value": -0.493}]}
